Some of the results follow.
Experiments:
Test in all cases: glycan array binding signal (z-score within array); higher = stronger binding
Conditions in all cases: glycan notation: IUPAC condensed, linker removed
[1] = biological target: Fuc(a1-3)[GalNAc(b1-4)]GlcNAc
How it was run: (§1)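 Glycan array data were curated from 3228 arrays in the Consortium for Functional Glycomics database and kept only where the protein sequence was available. Glycan names were converted to IUPAC-condensed notation, and columns mapping to the same glycan were averaged. The binding signal is a within-array Z-score, averaged across arrays of the same protein sequence at different concentrations or buffers and across linkers. Negative Z-scores can be read as non-binding.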

[2] = biological target: Fuc(a1-3)[GalNAc(b1-4)]GlcNAc6S
How it was run: as §1

Fuc(a1-4)GlcNAc = biological target: Fuc(a1-4)GlcNAc
How it was run: as §1

Fuc(b1-3)GlcNAc = biological target: Fuc(b1-3)GlcNAc
How it was run: as §1

Gal(a1-2)Gal = biological target: Gal(a1-2)Gal
How it was run: as §1

Gal(a1-3)Gal = biological target: Gal(a1-3)Gal
How it was run: as §1

Gal(a1-3)Gal(b1-3)GlcNAc = biological target: Gal(a1-3)Gal(b1-3)GlcNAc
How it was run: as §1

[3] = biological target: Gal(a1-3)Gal(b1-3)GlcNAc(b1-2)Man
How it was run: as §1

[4] = biological target: Gal(a1-3)Gal(b1-3)GlcNAc(b1-2)Man(a1-3)[Gal(a1-3)Gal(b1-3)GlcNAc(b1-2)Man(a1-6)]Man(b1-4)GlcNAc(b1-4)GlcNAc
How it was run: as §1

[5] = biological target: Gal(a1-3)Gal(b1-3)GlcNAc(b1-3)GalNAc
How it was run: as §1

[6] = biological target: Gal(a1-3)Gal(b1-3)GlcNAc(b1-6)GalNAc
How it was run: as §1

[7] = biological target: Gal(a1-3)Gal(b1-3)[Fuc(a1-4)]GlcNAc(b1-2)Man(a1-3)[Gal(a1-3)Gal(b1-3)[Fuc(a1-4)]GlcNAc(b1-2)Man(a1-6)]Man(b1-4)GlcNAc(b1-4)GlcNAc
How it was run: as §1

Gal(a1-3)Gal(b1-4)Glc = biological target: Gal(a1-3)Gal(b1-4)Glc
How it was run: as §1

Gal(a1-3)Gal(b1-4)GlcNAc = biological target: Gal(a1-3)Gal(b1-4)GlcNAc
How it was run: as §1

[8] = biological target: Gal(a1-3)Gal(b1-4)GlcNAc(b1-2)Man
How it was run: as §1

[9] = biological target: Gal(a1-3)Gal(b1-4)GlcNAc(b1-2)Man(a1-3)[Gal(a1-3)Gal(b1-4)GlcNAc(b1-2)Man(a1-6)]Man(b1-4)GlcNAc(b1-4)GlcNAc
How it was run: as §1

[10] = biological target: Gal(a1-3)Gal(b1-4)GlcNAc(b1-3)GalNAc
How it was run: as §1

[11] = biological target: Gal(a1-3)Gal(b1-4)GlcNAc(b1-6)GalNAc
How it was run: as §1

[12] = biological target: Gal(a1-3)Gal(b1-4)[Fuc(a1-3)]GlcNAc
How it was run: as §1

[13] = biological target: Gal(a1-3)Gal(b1-4)[Fuc(a1-3)]GlcNAc(b1-2)Man(a1-3)[Gal(a1-3)Gal(b1-4)[Fuc(a1-3)]GlcNAc(b1-2)Man(a1-6)]Man(b1-4)GlcNAc(b1-4)GlcNAc
How it was run: as §1

Gal(a1-3)GalNAc = biological target: Gal(a1-3)GalNAc
How it was run: as §1

[14] = biological target: Gal(a1-3)[Gal(a1-4)]Gal(b1-4)GlcNAc
How it was run: as §1

[15] = biological target: Gal(a1-4)Gal(b1-3)GlcNAc(b1-2)Man(a1-3)[Gal(a1-4)Gal(b1-3)GlcNAc(b1-2)Man(a1-6)]Man(b1-4)GlcNAc(b1-4)GlcNAc
How it was run: as §1

Gal(a1-4)Gal(b1-4)Glc = biological target: Gal(a1-4)Gal(b1-4)Glc
How it was run: as §1

Gal(a1-4)Gal(b1-4)GlcNAc = biological target: Gal(a1-4)Gal(b1-4)GlcNAc
How it was run: as §1

[16] = biological target: Gal(a1-4)Gal(b1-4)GlcNAc(b1-2)Man(a1-3)[Gal(a1-4)Gal(b1-4)GlcNAc(b1-2)Man(a1-6)]Man(b1-4)GlcNAc(b1-4)GlcNAc
How it was run: as §1

[17] = biological target: Gal(a1-4)Gal(b1-4)GlcNAc(b1-3)Gal(b1-4)Glc
How it was run: as §1

Gal(a1-4)GlcNAc = biological target: Gal(a1-4)GlcNAc
How it was run: as §1

Gal(a1-6)Glc = biological target: Gal(a1-6)Glc
How it was run: as §1

Gal(b1-2)Gal = biological target: Gal(b1-2)Gal
How it was run: as §1

Gal(b1-3)Gal = biological target: Gal(b1-3)Gal
How it was run: as §1

Gal(b1-3)Gal(b1-4)GlcNAc = biological target: Gal(b1-3)Gal(b1-4)GlcNAc
How it was run: as §1

Gal(b1-3)GalNAc = biological target: Gal(b1-3)GalNAc
How it was run: as §1

[18] = biological target: Gal(b1-3)GalNAc(a1-3)[Fuc(a1-2)]Gal(b1-4)Glc
How it was run: as §1

[19] = biological target: Gal(b1-3)GalNAc(a1-3)[Fuc(a1-2)]Gal(b1-4)GlcNAc
How it was run: as §1

Gal(b1-3)GalNAc(b1-3)Gal = biological target: Gal(b1-3)GalNAc(b1-3)Gal
How it was run: as §1

[20] = biological target: Gal(b1-3)GalNAc(b1-3)Gal(a1-4)Gal(b1-4)Glc
How it was run: as §1

[21] = biological target: Gal(b1-3)GalNAc(b1-4)Gal(b1-4)Glc
How it was run: as §1

[22] = biological target: Gal(b1-3)GalNAc(b1-4)[Neu5Ac(a2-3)]Gal(b1-4)Glc
How it was run: as §1

Gal(b1-3)GlcNAc = biological target: Gal(b1-3)GlcNAc
How it was run: as §1

[23] = biological target: Gal(b1-3)GlcNAc(a1-3)Gal(b1-4)GlcNAc
How it was run: as §1

[24] = biological target: Gal(b1-3)GlcNAc(a1-6)Gal(b1-4)GlcNAc
How it was run: as §1

Gal(b1-3)GlcNAc(b1-2)Man = biological target: Gal(b1-3)GlcNAc(b1-2)Man
How it was run: as §1

[25] = biological target: Gal(b1-3)GlcNAc(b1-2)Man(a1-3)[Gal(b1-3)GlcNAc(b1-2)Man(a1-6)]Man(b1-4)GlcNAc(b1-4)GlcNAc
How it was run: as §1

[26] = biological target: Gal(b1-3)GlcNAc(b1-2)Man(a1-3)[Gal(b1-3)GlcNAc(b1-2)Man(a1-6)]Man(b1-4)GlcNAc(b1-4)[Fuc(a1-6)]GlcNAc
How it was run: as §1

B1: Pbx1CASH domain (Cryptococcus neoformans) (protein)
chain: MDETKPLWGNPRADGISLACKDSIVERNVVYDATDGAIVLFGSAGSTVKNNHVYARTRVILGGINLVDYEPWDGDYTNVKVHHNHLYALGRYFKVGIVIGPASWSDDTESVVHSASVTDNEFSGGYWGYGIVVASAKNFEVLRNKVIWDGEQGVARFSGVPGS
[1]
  glycan array binding signal (z-score): 0.246
[2]
  glycan array binding signal (z-score): -0.281
Fuc(a1-4)GlcNAc
  glycan array binding signal (z-score): -0.287
Fuc(b1-3)GlcNAc
  glycan array binding signal (z-score): -0.312
Gal(a1-2)Gal
  glycan array binding signal (z-score): -0.625
Gal(a1-3)Gal
  glycan array binding signal (z-score): -0.099
Gal(a1-3)Gal(b1-3)GlcNAc
  glycan array binding signal (z-score): -0.681
[3]
  glycan array binding signal (z-score): -0.969
[4]
  glycan array binding signal (z-score): 0.152
[5]
  glycan array binding signal (z-score): -0.095
[6]
  glycan array binding signal (z-score): 1.73
[7]
  glycan array binding signal (z-score): -0.261
Gal(a1-3)Gal(b1-4)Glc
  glycan array binding signal (z-score): 0.025
Gal(a1-3)Gal(b1-4)GlcNAc
  glycan array binding signal (z-score): 0.003
[8]
  glycan array binding signal (z-score): -0.504
[9]
  glycan array binding signal (z-score): 0.689
[10]
  glycan array binding signal (z-score): 0.792
[11]
  glycan array binding signal (z-score): -0.006
[12]
  glycan array binding signal (z-score): -0.631
[13]
  glycan array binding signal (z-score): -0.569
Gal(a1-3)GalNAc
  glycan array binding signal (z-score): -0.612
[14]
  glycan array binding signal (z-score): -0.786
[15]
  glycan array binding signal (z-score): 0.262
Gal(a1-4)Gal(b1-4)Glc
  glycan array binding signal (z-score): -0.13
Gal(a1-4)Gal(b1-4)GlcNAc
  glycan array binding signal (z-score): -0.37
[16]
  glycan array binding signal (z-score): -0.011
[17]
  glycan array binding signal (z-score): -0.211
Gal(a1-4)GlcNAc
  glycan array binding signal (z-score): -0.656
Gal(a1-6)Glc
  glycan array binding signal (z-score): -0.17
Gal(b1-2)Gal
  glycan array binding signal (z-score): -0.215
Gal(b1-3)Gal
  glycan array binding signal (z-score): -0.769
Gal(b1-3)Gal(b1-4)GlcNAc
  glycan array binding signal (z-score): -0.418
Gal(b1-3)GalNAc
  glycan array binding signal (z-score): 0.52
[18]
  glycan array binding signal (z-score): 0.601
[19]
  glycan array binding signal (z-score): 0.739
Gal(b1-3)GalNAc(b1-3)Gal
  glycan array binding signal (z-score): -0.496
[20]
  glycan array binding signal (z-score): 0.926
[21]
  glycan array binding signal (z-score): -0.463
[22]
  glycan array binding signal (z-score): -0.501
Gal(b1-3)GlcNAc
  glycan array binding signal (z-score): -0.543
[23]
  glycan array binding signal (z-score): -0.719
[24]
  glycan array binding signal (z-score): -0.44
Gal(b1-3)GlcNAc(b1-2)Man
  glycan array binding signal (z-score): 0.145
[25]
  glycan array binding signal (z-score): -0.708
[26]
  glycan array binding signal (z-score): -0.004
